These results are taken from PubChem BioAssay AID1487 (National Center for Advancing Translational Sciences (NCATS), 2009).

This is one part of the list. Shown are side measurements of this screen, not its main read-out; they come without a call. Most of these compounds were active or inconclusive in the main read-out, so they are no random draw. Words in brackets tell the shape of the fitted curve; partial curves, single points and poor fits give uncertain potencies.

The nature of this test: qHTS Assay for Modulators of Lamin A Splicing. The conditions noted are these: HeLa LMNA splicing GFP/RFP minigene ratio, 48 h. In outline:
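S3 HeLa stable clones carrying a lamin A-EGFP splicing minigene plus DsRed2 were seeded at 600 cells/well in Opti-MEM with 2% FBS, pin-dosed and incubated 48 h at 37°C. Acumen cytometry (488 nm) gave the GFP/RFP total-intensity ratio.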
Background: Quantitative high-throughput screening tests each substance at several concentrations.

Where [1] appears, read: measured here: GFP splicing reporter channel.
[2] abbreviates: measured here: RFP viability control channel.

For `Cc1ccc([N+](=O)[O-])cc1N/C=C/C(=O)c1ccco1`, the AC50 was 35.5 µM [falling, single point] under setting [1] and 35.5 µM [falling, single point] under setting [2].

For the compound `COc1ccccc1Nc1cc(C)nc2c(C)ccc([N+](=O)[O-])c12`, the half-maximal activity concentration (AC50) under setting [2] was 11.2 µM [rising, single point].

In the case of `N#CC(C#N)=Cc1cc2ccccc2nc1N1CCCCC1`, the AC50 under setting [1] is 0.562 µM [rising, full curve, poor fit] and the half-maximal activity concentration (AC50) under setting [2] is 5.62 µM [rising, partial curve, poor fit].

Regarding `CCN1C(=O)N(S(=O)(=O)c2ccc(C)cc2)[C@@H](c2ccccc2)C(C(=O)OC)=C1C`, under setting [2], the AC50 was 0.0224 µM [falling, full curve, poor fit].

Consider `Cc1ccc(NCc2nnc(SCC(N)=O)o2)c(C)c1`, for which the concentration at half-maximal activity (AC50) under setting [2] was 0.447 µM [rising, full curve, poor fit].

Turning to `COc1cc2nc(N3CCN(C(=O)C4COc5ccccc5O4)CC3)nc(N)c2cc1OC` (stereo not drawn), under setting [2], the half-maximal activity concentration (AC50) is 12.6 µM [rising, partial curve].

Consider `CCCC(=O)N(c1ccc2oc(=O)sc2c1)S(=O)(=O)c1ccccc1`, for which the AC50 under setting [2] was 15.8 µM [rising, single point].

For the compound `COc1ccc2c(c1)Sc1ccccc1N2`, the concentration at half-maximal activity (AC50) under setting [2] was 31.6 µM [rising, single point].

As for `CN(C(=S)NC(=O)Cc1ccccc1)c1ccccc1`, under setting [2], the AC50 was 1.58 µM [falling, full curve, poor fit].

For `COc1cc(C(=O)N2CCN(c3ncnc4sc(C)c(C)c34)CC2)cc(OC)c1OC`, the AC50 is, setting by setting: under setting [1], 1.78 µM [rising, partial curve, poor fit]; under setting [2], 2.82 µM [rising, full curve].

For the compound `c1cncc(-c2nc(-c3ccco3)cs2)c1`, the AC50 under setting [2] is 0.0282 µM [falling, full curve, poor fit].

`CCOC(=O)N1CCN(Cc2nc3cc(NC(=O)c4cccc(C)c4)ccc3n2C(C)C)CC1`: the AC50 under setting [2] is 2.51 µM [rising, partial curve].

Turning to `CCn1nc(C)c2c(-c3ccccc3)cc(=O)n(C(C)C(=O)NCc3ccccc3OC)c21` (stereo not drawn), the AC50 under setting [2] is 11.2 µM [rising, single point].

`COCC1CCN(Cc2cn(C)nc2-c2cccc(Cl)c2)C1` (stereo not drawn): the AC50 under setting [2] was 0.00355 µM [falling, full curve, poor fit].

`O=C(/C=C/c1ccccc1)N1CCN(c2c(Cl)cccc2[N+](=O)[O-])CC1`: the AC50 by setting is: under setting [1], 35.5 µM [rising, single point]; under setting [2], 31.6 µM [rising, single point].

Regarding `CC(=O)N1CCN(S(=O)(=O)c2cccc(C(=O)OCC(=O)N3CC(=O)Nc4ccccc43)c2)CC1`, the AC50 under setting [1] is 0.0178 µM [falling, full curve].

As to `CCc1ccccc1NC(=O)CCCN1C(=O)CCn2nc(-c3cn(C)c4ccccc34)cc21`, the concentration at half-maximal activity (AC50) under setting [1] was 22.4 µM [falling, partial curve, poor fit].

In the case of `COc1cc(Nc2nc(SCc3ccccc3Cl)nc3ccccc23)cc(OC)c1`, under setting [2], the AC50 was 12.6 µM [rising, single point].

For `Cc1ccc(-c2noc(CCCC(=O)Nc3cccnc3)n2)cc1`, the AC50 under setting [2] was 12.6 µM [rising, partial curve].

As for `COCCNC(=O)c1ccc(CN2CCc3ccccc3C2)cc1`, under setting [1], the half-maximal activity concentration (AC50) is 12.6 µM [rising, partial curve].

With `O=C(O[C@@H]1OC2COC(=O)c3cc(O)c(O)c(O)c3-c3c(cc(O)c(O)c3O)C(=O)O[C@@H]([C@H]1O)[C@@H]2O)c1cc(O)c(O)c(O)c1`, the AC50 under setting [2] was 5.62 µM [rising, single point].

Turning to `CCOc1ccc(CCNC(=O)c2ccc(CNS(=O)(=O)c3ccccc3)cc2)cc1OCC`, the AC50 under setting [2] is 10 µM [rising, partial curve].

Take `CCN(CC(=O)NC1CCS(=O)(=O)C1)c1nc(-c2cccnc2)nc2ccccc12` (stereo not drawn): the AC50 under setting [1] is 35.5 µM [rising, single point] and the half-maximal activity concentration (AC50) under setting [2] was 35.5 µM [rising, single point].

For the compound `COc1ccc(-c2[nH]ncc2-c2ccc3c(c2)OCCO3)c(O)c1`, the half-maximal activity concentration (AC50) is, setting by setting: under setting [1], 14.1 µM [rising, partial curve, poor fit]; under setting [2], 14.1 µM [rising, partial curve].

As to `COc1ccc(-c2cnc(SCC(=O)Nc3cc(C)on3)n2Cc2ccco2)cc1`, under setting [2], the concentration at half-maximal activity (AC50) was 1 µM [falling, partial curve, poor fit].

With `COc1ccccc1N/C(=N/S(=O)(=O)c1ccc(Cl)cc1)c1ccccc1`, the AC50 was 3.16 µM [falling, single point] under setting [1] and 3.16 µM [falling, single point] under setting [2].

For `CCCCOc1ncnc2c1[nH]c1ccccc12`, under setting [1], the half-maximal activity concentration (AC50) was 1.78 µM [rising, single point].

Consider `Cc1ccc(C(=O)N2CCN(c3ccccn3)CC2)cc1[N+](=O)[O-]`, for which the half-maximal activity concentration (AC50) runs as follows: under setting [1], 0.00501 µM [falling, full curve]; under setting [2], 0.00447 µM [falling, full curve, poor fit].

In the case of `Cc1[nH]c2ccccc2c1N=Nc1c(C)n(C)n(-c2ccccc2)c1=O`, the AC50 under setting [2] is 0.0112 µM [falling, full curve, poor fit].

Turning to `COc1cccc(NC(=O)CSc2nc3ccccc3c(=O)n2Cc2cccs2)c1`, the AC50 under setting [2] is 11.2 µM [rising, partial curve].

In the case of `COC(=O)COC(=O)c1ccccc1NC(=O)c1ccccc1`, the AC50 under setting [2] was 0.562 µM [falling, single point].

Regarding `COC(=O)CSc1nnc(-c2ccccc2O)n1-c1ccc(C)cc1`, the AC50 reads like this: under setting [1], 0.447 µM [rising, full curve, poor fit]; under setting [2], 0.447 µM [rising, full curve].

As for `CCOc1ccc2nc(SCC(=O)NC(=O)NCc3ccco3)sc2c1`, the concentration at half-maximal activity (AC50) was 35.5 µM [rising, single point] under setting [1] and 35.5 µM [rising, single point] under setting [2].

With `CCOc1ccccc1CNS(=O)(=O)c1ccc2[nH]c(=O)sc2c1`, under setting [2], the AC50 was 12.6 µM [rising, single point].

On to `Cc1nc(-c2ccccc2)sc1C(=O)/C=C/c1ccccc1`, for which the AC50 by setting is: under setting [1], 11.2 µM [falling, partial curve, poor fit]; under setting [2], 14.1 µM [falling, partial curve].

Regarding `COc1ccc(S(=O)(=O)N2CCC(C(=O)N3CCc4ccccc4C3)CC2)cc1`, the half-maximal activity concentration (AC50) under setting [2] was 10 µM [rising, partial curve].

Consider `Cc1cccc(CSc2cccc3cccnc23)c1`, for which the AC50 reads like this: under setting [1], 8.91 µM [falling, partial curve, poor fit]; under setting [2], 12.6 µM [falling, partial curve].

`COc1ccc2c(c1)CC/C(=C\c1ccc(OC)c(Cn3cccn3)c1)C2=O`: the AC50 under setting [1] was 14.1 µM [falling, single point] and the AC50 under setting [2] is 22.4 µM [falling, single point].

Regarding `Cc1cc(C)cc(C(=O)NCC(c2ccc(N(C)C)cc2)N2CCCC2)c1` (stereo not drawn), under setting [1], the concentration at half-maximal activity (AC50) is 20 µM [falling, partial curve, poor fit].

Turning to `Clc1ccc(-c2csc(N/N=C/c3cccnc3)n2)c(Cl)c1`, the AC50 under setting [2] was 17.8 µM [rising, single point].

As for `COc1ccc2c(C)cc(SCC(=O)Nc3ccc(Cl)cn3)nc2c1`, the half-maximal activity concentration (AC50) runs as follows: under setting [1], 0.178 µM [rising, partial curve]; under setting [2], 0.141 µM [rising, full curve].

As for `CC(C)(C)NC(=O)COC(=O)CCC(=O)c1ccc(F)cc1`, the AC50 under setting [1] is 22.4 µM [falling, partial curve, poor fit] and the AC50 under setting [2] is 14.1 µM [falling, partial curve, poor fit].

Turning to `Cc1cccc(Nc2nc(N)c([N+](=O)[O-])c(N3CCCC(C)C3)n2)c1` (stereo not drawn), the AC50 reads like this: under setting [1], 5.62 µM [falling, single point]; under setting [2], 2.82 µM [falling, single point].

For `CCNC(=S)N/N=C/c1cccc(C)c1`, the AC50 under setting [2] is 31.6 µM [rising, single point].

Turning to `CCc1ccc(/C=C/C(=O)c2c(C)cc(C)[nH]c2=O)cc1`, the concentration at half-maximal activity (AC50) is 11.2 µM [falling, partial curve] under setting [1] and 35.5 µM [rising, single point] under setting [2].

As for `CCOc1cc(C)nc(Oc2ccc(=O)[nH]n2)n1`, the AC50 under setting [2] is 7.94 µM [falling, single point].

With `N#C/C(=C\Nc1ccccc1SC(F)(F)F)c1nc(-c2ccc(Cl)cc2)cs1`, the concentration at half-maximal activity (AC50) under setting [2] is 31.6 µM [rising, single point].

Consider `COc1ccc(Br)cc1CNc1ccc(S(N)(=O)=O)cc1`, for which the AC50 was 31.6 µM [rising, single point] under setting [1] and 35.5 µM [rising, single point] under setting [2].

As for `Cc1ccc(S(=O)(=O)NCc2nc3ccccc3c(=O)n2N)cc1`, under setting [2], the AC50 is 20 µM [rising, single point].

As for `C=CCSc1n[nH]c(-c2ccc(OCCCC)cc2)n1`, under setting [2], the concentration at half-maximal activity (AC50) was 12.6 µM [rising, single point].

Consider `CCC(C)n1c(SCc2ccccc2)nc2ccsc2c1=O` (stereo not drawn), for which the AC50 was 35.5 µM [rising, single point] under setting [1] and 35.5 µM [rising, single point] under setting [2].

Take `CC(=O)Oc1ccc(C(=O)Nc2cccc(C(=O)NC(C)(C)C)c2)cc1`: the AC50 under setting [1] is 1.26 µM [rising, single point] and the AC50 under setting [2] was 1.26 µM [rising, single point].

On to `Cc1cc(C)nc(N2CCC(C(=O)NCCc3ccc(Cl)cc3)CC2)n1`, for which the half-maximal activity concentration (AC50) runs as follows: under setting [1], 1.78 µM [falling, full curve]; under setting [2], 7.08 µM [falling, full curve, poor fit].

As for `COc1cc(NC(=O)Cc2nn(C)c(=O)c3ccccc23)cc(OC)c1`, the half-maximal activity concentration (AC50) runs as follows: under setting [1], 2.24 µM [rising, partial curve, poor fit]; under setting [2], 2.82 µM [rising, partial curve, poor fit].

Turning to `CCCOc1ncnc2c1[nH]c1ccccc12`, the AC50 was 2.82 µM [rising, single point] under setting [1] and 7.94 µM [rising, partial curve] under setting [2].

One may read the AC50 as the concentration giving half of the maximal activity seen.
